# Some of the results follow. Repeats are few or missing, and single values can be far off.
# Columns and labels:
# [1] = test system: MEPP (mouse ovarian epithelium Trp53/Pten KO); experiment: cell viability relative to untreated (fraction); higher = less growth inhibition; settings: 5 µM; 3 days
# [2] = test system: PREPP (mouse prostate epithelium Trp53/Pten KO); experiment: as above; settings: 5 µM; 3 days
SMILES,cell viability [1],cell viability [2]
C[C@H](CCC(=O)NCCS(=O)(=O)O)[C@H]1CC[C@H]2[C@@H]3[C@H](O)C[C@@H]4C[C@H](O)CC[C@]4(C)[C@H]3C[C@H](O)[C@]12C,1.03,0.872
CCCCOC(=O)c1ccc(O)cc1,1.1,0.982
O=C(O)c1ccccc1C(=O)O,0.985,0.818
CC(=O)N[C@@H](Cc1ccc(O)cc1)C(=O)O,0.906,0.931
N=C(N)c1ccc(OCCCCCOc2ccc(C(=N)N)cc2)cc1,1.15,1.02
CC1C(=O)OC2C(O)C34C5CC(C(C)(C)C)C36C(OC(=O)C6O)OC4(C(=O)O5)C12O (stereo unspecified),0.814,1.23
C=C[C@](C)(O)CC[C@@H]1[C@@]2(C)CCCC(C)(C)[C@@H]2CC[C@@]1(C)O,0.852,0.98
CC1(C)C=Cc2c(ccc3c2OC[C@@H](c2ccc(O)cc2O)C3)O1,1.07,1.13
C[C@H](O)[C@@H](O)[C@@H](O)[C@H](O)C=O,0.915,0.703
C=C[C@H]1CN2CC[C@H]1C[C@H]2[C@H](O)c1ccnc2ccc(OC)cc12,0.798,0.872
COc1ccc2cc(C(=O)O)ccc2c1,0.838,1.19
Nc1nc2c(ncn2[C@@H]2O[C@H](CO)[C@@H](O)[C@H]2O)c(=O)[nH]1,1.42,1.11
CCCNC[C@]1(O)[C@H](C)O[C@@H](O[C@H]2[C@H](C)[C@@H](O[C@@H]3O[C@H](C)C[C@H](N(C)C)[C@H]3O)[C@](C)(O)C[C@@H](C)CN[C@H](C)[C@@H](O)[C@](C)(O)[C@@H](CC)OC(=O)[C@@H]2C)C[C@@]1(C)OC,1.06,0.762

# Reformatted bar-delimited: part of the list above
SMILES | cell viability [1] | cell viability [2]
COc1ccc2cc(C(=O)O)ccc2c1 | 0.838 | 1.19
Nc1nc2c(ncn2[C@@H]2O[C@H](CO)[C@@H](O)[C@H]2O)c(=O)[nH]1 | 1.42 | 1.11

# Source: the supplement of paper PMC12873370
